From paper PMC9133088
Results are given in words; binding and its absence hold for the method and conditions named. Binding seen in cells or lysates may run through a third protein. Some results given as binding are weak or reduced against the parent protein; the word gives no strength. One block for each substance: values may come before it.

The chains behind the UniProt entries cited, without tags or fusion partners. Where a name states a change or a piece, a line headed by the entry shows the natural chain unless it says otherwise.
UniProt Q9P2J5: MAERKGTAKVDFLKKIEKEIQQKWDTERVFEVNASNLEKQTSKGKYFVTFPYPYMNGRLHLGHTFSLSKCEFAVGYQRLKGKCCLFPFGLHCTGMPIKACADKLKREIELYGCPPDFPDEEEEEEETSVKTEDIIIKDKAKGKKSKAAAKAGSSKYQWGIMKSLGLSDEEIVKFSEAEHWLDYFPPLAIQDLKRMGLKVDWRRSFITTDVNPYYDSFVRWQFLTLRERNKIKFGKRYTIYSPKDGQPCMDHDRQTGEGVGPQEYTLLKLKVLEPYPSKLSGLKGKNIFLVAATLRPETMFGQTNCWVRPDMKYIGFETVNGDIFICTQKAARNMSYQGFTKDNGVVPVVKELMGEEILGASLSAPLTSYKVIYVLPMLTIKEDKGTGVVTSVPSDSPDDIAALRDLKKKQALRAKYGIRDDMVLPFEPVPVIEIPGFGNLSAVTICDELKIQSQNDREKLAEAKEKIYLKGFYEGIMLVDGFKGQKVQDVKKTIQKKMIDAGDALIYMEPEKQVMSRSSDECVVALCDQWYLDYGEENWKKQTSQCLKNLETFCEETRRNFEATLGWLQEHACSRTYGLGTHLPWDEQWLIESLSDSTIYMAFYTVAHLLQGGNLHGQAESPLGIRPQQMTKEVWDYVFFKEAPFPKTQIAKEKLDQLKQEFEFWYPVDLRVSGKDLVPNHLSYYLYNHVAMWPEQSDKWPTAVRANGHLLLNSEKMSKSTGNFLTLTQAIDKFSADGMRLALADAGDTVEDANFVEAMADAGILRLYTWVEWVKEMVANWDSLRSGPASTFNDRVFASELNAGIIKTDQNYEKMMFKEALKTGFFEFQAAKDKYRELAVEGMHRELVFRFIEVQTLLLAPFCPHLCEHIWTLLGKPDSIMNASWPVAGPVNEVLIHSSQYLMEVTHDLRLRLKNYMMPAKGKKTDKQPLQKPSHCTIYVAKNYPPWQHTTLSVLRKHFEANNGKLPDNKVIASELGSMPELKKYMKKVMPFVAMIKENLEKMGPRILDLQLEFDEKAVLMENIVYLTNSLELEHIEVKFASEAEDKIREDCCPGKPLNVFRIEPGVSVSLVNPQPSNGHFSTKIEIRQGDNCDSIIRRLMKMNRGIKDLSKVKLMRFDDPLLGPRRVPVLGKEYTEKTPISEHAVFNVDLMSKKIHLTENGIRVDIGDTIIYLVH
UniProt Q9HB90: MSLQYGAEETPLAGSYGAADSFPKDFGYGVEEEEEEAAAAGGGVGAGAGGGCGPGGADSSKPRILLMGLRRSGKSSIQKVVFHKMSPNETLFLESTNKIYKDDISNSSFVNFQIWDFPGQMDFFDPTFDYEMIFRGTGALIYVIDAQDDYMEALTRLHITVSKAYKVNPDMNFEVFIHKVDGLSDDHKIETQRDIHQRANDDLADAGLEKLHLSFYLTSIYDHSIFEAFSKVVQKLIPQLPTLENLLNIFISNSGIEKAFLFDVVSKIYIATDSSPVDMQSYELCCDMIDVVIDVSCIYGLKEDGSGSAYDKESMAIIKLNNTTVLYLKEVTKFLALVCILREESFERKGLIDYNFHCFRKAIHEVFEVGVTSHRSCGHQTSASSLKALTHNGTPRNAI
UniProt Q9NQL2: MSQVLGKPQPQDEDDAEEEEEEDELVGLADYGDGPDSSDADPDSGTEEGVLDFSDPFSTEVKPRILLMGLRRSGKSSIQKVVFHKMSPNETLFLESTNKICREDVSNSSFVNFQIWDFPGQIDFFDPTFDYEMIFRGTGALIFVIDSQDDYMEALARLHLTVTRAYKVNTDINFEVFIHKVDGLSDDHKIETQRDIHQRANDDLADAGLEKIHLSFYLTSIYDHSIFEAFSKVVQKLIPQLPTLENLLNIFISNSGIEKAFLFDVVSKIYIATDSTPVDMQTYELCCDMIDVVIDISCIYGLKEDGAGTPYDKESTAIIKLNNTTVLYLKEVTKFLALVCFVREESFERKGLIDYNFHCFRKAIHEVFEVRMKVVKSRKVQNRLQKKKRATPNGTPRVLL

Experiments:
[1] = molecular target: His-tagged WT LARS1, unmodified (purified from E. coli without OGT1) (human) (UniProt Q9P2J5); assay: pull-down; His-tagged LARS1 proteins from E. coli on Ni-NTA beads, incubated 1 h with Myc-RagD or HA-RagC with 200 uM ATP/2 mM leucine; 50 mM HEPES/NaOH pH 7.4, 150 mM NaCl, 5 mM MgCl2, 0.5 mM EDTA, 0.1% Triton X-100 (Fig. 4g); only the target purified
[2] = molecular target: His-tagged S1042A mutant LARS1 (human) (UniProt Q9P2J5); assay: as above
[3] = molecular target: Myc-tagged LARS1 S1042A mutant (human) (UniProt Q9P2J5); assay: co-IP; SW620 cells transfected with Myc-LARS1 constructs, starved of glucose for 4 h; anti-Myc antibody-conjugated agarose beads, immunoblot for RagD (Fig. 4h)
[4] = molecular target: Strep-tagged LARS1 S1042A mutant (human) (UniProt Q9P2J5); assay: pull-down; Strep-tagged LARS1 expressed in cells, cells starved of glucose for 4 h (absence of glucose); precipitated with Strep beads, immunoblot for ULK1 and RagD (Supplementary Fig. 5d)

- binding [1]: no binding
Substance: HA-tagged RagC (WT) (from UniProt Q9HB90 1-399) (other; other documents disagree on this pair)

- binding [2]: binds
Substance: Myc-tagged RagD (WT) (from UniProt Q9NQL2 1-400)

- binding [3]: binds
- binding [4]: binds
Substance: RagD GTPase, endogenous (from UniProt Q9NQL2 1-400)
